# Measurements published in doi:10.1101/2024.04.15.589462.
# By UniProt entry, the sequences of proteins in these tests, tags left out.
# UniProt Q61188: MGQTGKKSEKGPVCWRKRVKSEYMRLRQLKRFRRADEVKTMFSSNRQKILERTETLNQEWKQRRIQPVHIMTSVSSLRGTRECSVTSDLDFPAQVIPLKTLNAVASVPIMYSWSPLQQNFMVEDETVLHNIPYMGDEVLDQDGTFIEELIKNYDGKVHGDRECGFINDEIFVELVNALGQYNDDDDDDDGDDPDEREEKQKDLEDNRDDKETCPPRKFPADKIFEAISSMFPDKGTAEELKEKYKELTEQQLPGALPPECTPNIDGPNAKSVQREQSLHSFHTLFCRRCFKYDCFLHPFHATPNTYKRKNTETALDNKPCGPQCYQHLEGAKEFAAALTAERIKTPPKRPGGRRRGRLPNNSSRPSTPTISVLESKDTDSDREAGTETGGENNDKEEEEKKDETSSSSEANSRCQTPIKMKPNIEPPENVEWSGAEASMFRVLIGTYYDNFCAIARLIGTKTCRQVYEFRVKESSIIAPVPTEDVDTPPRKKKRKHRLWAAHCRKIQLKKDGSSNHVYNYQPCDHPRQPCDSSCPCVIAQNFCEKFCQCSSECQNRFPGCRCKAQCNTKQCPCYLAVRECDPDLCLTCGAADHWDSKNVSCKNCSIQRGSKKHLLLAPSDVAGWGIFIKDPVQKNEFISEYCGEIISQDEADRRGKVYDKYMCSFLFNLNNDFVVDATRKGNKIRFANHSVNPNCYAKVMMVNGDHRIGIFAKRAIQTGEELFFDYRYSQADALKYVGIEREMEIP
# UniProt Q80U70: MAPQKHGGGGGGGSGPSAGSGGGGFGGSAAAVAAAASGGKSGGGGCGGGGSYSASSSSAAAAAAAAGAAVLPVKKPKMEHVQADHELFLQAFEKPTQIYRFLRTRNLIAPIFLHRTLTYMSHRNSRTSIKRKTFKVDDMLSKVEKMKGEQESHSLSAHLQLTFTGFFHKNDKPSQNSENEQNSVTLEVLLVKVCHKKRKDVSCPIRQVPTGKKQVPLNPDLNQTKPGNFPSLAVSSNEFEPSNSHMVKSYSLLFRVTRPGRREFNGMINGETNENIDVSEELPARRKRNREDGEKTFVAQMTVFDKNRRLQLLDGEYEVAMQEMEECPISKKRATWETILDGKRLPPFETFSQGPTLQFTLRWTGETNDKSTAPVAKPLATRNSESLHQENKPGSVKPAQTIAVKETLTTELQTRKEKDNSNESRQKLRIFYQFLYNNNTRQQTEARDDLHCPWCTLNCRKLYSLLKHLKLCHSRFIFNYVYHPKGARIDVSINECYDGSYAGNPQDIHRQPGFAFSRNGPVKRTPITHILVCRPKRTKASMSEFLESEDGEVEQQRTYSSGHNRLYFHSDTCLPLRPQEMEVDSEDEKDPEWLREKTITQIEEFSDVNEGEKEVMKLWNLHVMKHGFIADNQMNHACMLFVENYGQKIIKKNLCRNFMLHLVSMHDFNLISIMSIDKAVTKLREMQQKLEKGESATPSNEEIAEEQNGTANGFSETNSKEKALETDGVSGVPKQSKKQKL
# Results are given in words; binding and its absence hold for the method and conditions named. Binding seen in cells or lysates may run through a third protein. Some entries that bind do so weakly or less than the wild type. For some assays here: Sequences can lack the tags named with a protein.
# What was measured:
# [1] = biological target: T1, endogenous AUTS2 (mouse (endogenous in embryonic cerebral cortex)); test: co-IP
# T1 sequence: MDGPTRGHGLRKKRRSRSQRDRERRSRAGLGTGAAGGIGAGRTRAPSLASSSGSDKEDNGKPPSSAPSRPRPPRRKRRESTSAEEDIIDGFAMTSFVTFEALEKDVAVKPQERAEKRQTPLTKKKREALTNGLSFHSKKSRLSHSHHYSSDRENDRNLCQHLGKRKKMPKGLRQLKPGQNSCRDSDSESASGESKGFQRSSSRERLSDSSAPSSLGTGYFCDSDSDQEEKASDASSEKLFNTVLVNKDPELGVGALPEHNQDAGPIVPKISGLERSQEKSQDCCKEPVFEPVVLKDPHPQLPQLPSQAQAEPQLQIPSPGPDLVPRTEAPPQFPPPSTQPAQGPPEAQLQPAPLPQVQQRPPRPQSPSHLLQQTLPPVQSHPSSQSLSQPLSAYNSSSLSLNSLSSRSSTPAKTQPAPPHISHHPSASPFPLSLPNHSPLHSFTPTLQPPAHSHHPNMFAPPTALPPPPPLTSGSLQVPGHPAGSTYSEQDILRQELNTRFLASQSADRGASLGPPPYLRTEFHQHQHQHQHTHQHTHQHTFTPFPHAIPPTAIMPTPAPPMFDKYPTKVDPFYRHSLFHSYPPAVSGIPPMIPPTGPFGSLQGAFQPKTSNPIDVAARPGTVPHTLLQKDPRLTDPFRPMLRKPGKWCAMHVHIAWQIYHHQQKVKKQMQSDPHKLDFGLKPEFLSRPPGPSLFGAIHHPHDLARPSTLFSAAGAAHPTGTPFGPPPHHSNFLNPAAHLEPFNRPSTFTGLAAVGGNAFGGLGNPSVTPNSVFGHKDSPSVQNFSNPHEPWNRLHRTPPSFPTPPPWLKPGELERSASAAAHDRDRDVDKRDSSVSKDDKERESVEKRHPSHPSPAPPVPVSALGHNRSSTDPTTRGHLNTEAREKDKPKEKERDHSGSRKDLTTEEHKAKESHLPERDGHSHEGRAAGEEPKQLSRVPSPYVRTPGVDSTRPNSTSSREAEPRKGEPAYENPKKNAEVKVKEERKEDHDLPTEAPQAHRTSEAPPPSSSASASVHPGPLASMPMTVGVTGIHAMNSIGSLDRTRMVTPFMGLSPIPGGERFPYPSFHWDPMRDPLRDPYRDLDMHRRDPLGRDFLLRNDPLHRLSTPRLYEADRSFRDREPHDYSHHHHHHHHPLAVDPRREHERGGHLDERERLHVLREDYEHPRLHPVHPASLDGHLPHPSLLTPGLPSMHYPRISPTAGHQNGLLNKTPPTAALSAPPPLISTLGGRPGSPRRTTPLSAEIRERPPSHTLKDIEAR
# 3xFlag-tagged FL-AUTS2 = biological target: T2, 3xFlag-tagged FL-AUTS2; test: co-IP
# T2 sequence: T1 sequence
# [2] = biological target: T1, endogenous AUTS2 (mouse (endogenous in embryonic cerebral cortex)); test: proximity ligation
binding [1],binding (3xFlag-tagged FL-AUTS2),binding [2],Substance
binds,binds,binds,EZH2 (from UniProt Q61188 1-746)
binds,binds,–,SUZ12 (from UniProt Q80U70 1-741)
